Assay results reported in US20210214444A1 (TAYU HUAXIA BIOTECH MEDICAL GROUP, published 2021).
No constants are given. Whether binding was seen depends on the method and setting. Some entries that bind do so weakly or less than the wild type.

Chains of the proteins cited; added tags and fusions are not shown. Lines headed by an entry give the natural chain unless they say otherwise; changes in a name come on top.
UniProt Q9NZQ7: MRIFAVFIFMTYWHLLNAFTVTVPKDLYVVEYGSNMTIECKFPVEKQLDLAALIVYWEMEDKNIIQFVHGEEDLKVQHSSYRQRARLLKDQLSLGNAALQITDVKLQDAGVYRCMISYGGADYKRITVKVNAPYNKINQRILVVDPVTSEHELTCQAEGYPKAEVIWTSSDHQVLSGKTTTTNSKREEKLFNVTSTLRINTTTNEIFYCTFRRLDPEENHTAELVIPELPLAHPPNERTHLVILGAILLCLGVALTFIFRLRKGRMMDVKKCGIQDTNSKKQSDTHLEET

Key:
[1] = biological target: human PD-L1 expressed on cells (human) (UniProt Q9NZQ7); experiment: FACS, binding to hPD-L1 (cells not named)
[2] = biological target: human PD-L1 expressed on cells (human) (UniProt Q9NZQ7); experiment: competitive radioligand binding on MC38-PD-L1 cells: unlabeled anti-PD-L1 IgG1 (20-160 nM according to the text) against 68Ga-NOTA-anti-PD-L1 scFv, gamma counting
[3] = biological target: human PD-L1 expressed on cells (human) (UniProt Q9NZQ7); experiment: FACS on CHO/PD-L1 stable cells, 1.9-62.5 ng first antibody, 60 ng anti-HuFc-PE
[4] = biological target: biotin-labeled hPD-L1-mouse Fc fusion protein (human) (UniProt Q9NZQ7); experiment: BLI, ForteBio Octet RED96; biotin hPD-L1-mouse Fc on SA sensors
[5] = biological target: human PD-L1 expressed on cells (human) (UniProt Q9NZQ7); experiment: FACS on CHO/PD-L1 stable cells, anti-HuFc-PE
[6] = biological target: human PD-L1 expressed on cells (human) (UniProt Q9NZQ7); experiment: FACS stability test, 62.5/31/15.6 ng first antibody, 60 ng HuFc-PE; row marked Control
[7] = biological target: human PD-L1 expressed on cells (human) (UniProt Q9NZQ7); experiment: FACS stability test, 62.5/31/15.6 ng first antibody, 60 ng second antibody (label partly missing: '2nd Ab ... Fc-PE'); row marked Control
[8] = biological target: human PD-L1 expressed on cells (human) (UniProt Q9NZQ7); experiment: FACS on hPD-L1; neither the text nor the sheet names the cells
[9] = biological target: human PD-L1 expressed on cells (human) (UniProt Q9NZQ7); experiment: FACS stability test, 62.5/31/15.6 ng first antibody, 60 ng HuFc-PE; row marked Control, storage temperature not given

Measured: binding

B1: humanized anti-hPD-L1 antibody variant 2 (antibody, V domains shown)
VH: QVQLVQSGAEVKKPGASVKVSCKASGFNIKDTYMYWVRQAPGQGLEWMGRIDPANDNTKYAQKFQGRVTITADTSTSTAYMELSSLRSEDTAVYYCARAKNLLNYFDYWGQGTLVTVSS
VL: DIQMTQSPSSLSASVGDRVTITCRASQEISGYLSWLQQKPGKAPKRLIYATSTLQSGVPSRFSGSRSGTDYTLTISSLQPEDFATYYCLQYAIYPLTFGQGTKLEIKR
notes: Human IgG1; also called Humanized VH 1 + Humanized VL2; anti-PD-L1 IgG1
binds: all assays above
